Reference: PubChem BioAssay AID248 (DTP/NCI, 2004)
The list is a part of this screen's results and no random one: it gathers tests that were run many times, whatever their T/C, doses with no T/C, and many T/C values between a quarter and a half above the control. Other doses and runs of a compound stand elsewhere. T/C: endpoint of the treated group in % of that of the vehicle group. Some doses have a count of surviving animals in place of a T/C: the source files T/C as zero there, which appears to mark a toxic dose or a test without result, not a measured value. Some doses without a T/C left all or most animals alive at the check, yet need not have been tolerated: the source hardly ever lists a survival T/C far under the control, and the zero likely stands for such cases as well. Survivors were counted at the toxicity check, usually on the fifth day, unless a day is given; later deaths do not show. Schedules are NCI's codes, taken here to give the interval after Q, in days (D) or hours (H), and the number of doses after X. Some entries hold several experiments; the results are listed from low to high. Where survival is the endpoint, this PubChem deposit counts one and a half times the control or more as active, and values a quarter to a half above the control carry no call in these data; other NCI protocols may use other cut-offs. Some T/C values carry the count of animals alive at the toxicity check (mostly the fifth day); where none is given, no animal had died by that day.

Test system: L1210 leukemia ip in BDF1 mice, survival T/C
Experiment: NCI In Vivo Anticancer Drug Screen. Data for tumor model L1210 Leukemia (intraperitoneal) in B6D2F1 (BDF1) mice
Settings: T/C endpoint: mean survival time, higher T/C = longer survival
[1] = dose: 400.0 mg/kg/injection, schedule: Q01DX009 (ip), vehicle: Klucel (hydroxypropylcellulose) (HPC)
[2] = dose: 400.0 mg/kg/injection, schedule: Q04DX002 (ip), vehicle: saline
[3] = dose: 400.0 mg/kg/injection, schedule: Q04DX003 (ip), vehicle: Klucel (hydroxypropylcellulose) (HPC)
[4] = dose: 200.0 mg/kg/injection, schedule: Q01DX009 (ip), vehicle: saline with Tween-80
[5] = dose: 200.0 mg/kg/injection, schedule: Q01DX009 (ip), vehicle: saline
[6] = dose: 400.0 mg/kg/injection, schedule: Q01DX009 (ip), vehicle: saline
[7] = dose: 100.0 mg/kg/injection, schedule: Q04DX002 (ip), vehicle: saline with Tween-80
[8] = dose: 200.0 mg/kg/injection, schedule: Q01DX001 (ip), vehicle: saline
[9] = dose: 400.0 mg/kg/injection, schedule: Q01DX001 (ip), vehicle: saline
[10] = dose: 400.0 mg/kg/injection, schedule: Q01DX009 (ip), vehicle: saline with Tween-80
[11] = dose: 200.0 mg/kg/injection, schedule: Q04DX002 (ip), vehicle: saline with Tween-80
[12] = dose: 400.0 mg/kg/injection, schedule: Q04DX002 (ip), vehicle: saline with Tween-80

O=C(Nc1ccccc1)Oc1c(Cl)cc(Cl)c(Cl)c1[N+](=O)[O-]
survivor count (dose: 100.0 mg/kg/injection, schedule: Q01DX009 (ip), vehicle: Klucel (hydroxypropylcellulose) (HPC)): 2 of 6
survivor count (dose: 200.0 mg/kg/injection, schedule: Q01DX009 (ip), vehicle: Klucel (hydroxypropylcellulose) (HPC)): 2 of 6
survivor count [1]: 0 of 6

N.N.N.N.N.N#CN=C(N)N.[Co+3].[O-][Cl+3]([O-])([O-])[O-]
survivor count (dose: 200.0 mg/kg/injection, schedule: Q04DX002 (ip), vehicle: saline): 0 of 3
survivor count [2]: 0 of 3

CCCCCCCCCCCCCCCCCOc1ccc(Sc2ccc([N+](=O)[O-])cc2)cc1
survivor count (dose: 100.0 mg/kg/injection, schedule: Q04DX003 (ip), vehicle: Klucel (hydroxypropylcellulose) (HPC)): 6 of 6
survivor count [3]: 6 of 6

COc1ccc(/C=N/NC(=O)CNC(=O)Nc2cccc(Cl)c2)cc1
survivor count (dose: 100.0 mg/kg/injection, schedule: Q01DX009 (ip), vehicle: saline with Tween-80): 3 of 3
survivor count [4]: 2 of 3

O=NN(CCCl)C(=O)NC1CSCSC1
T/C (dose: 3.5 mg/kg/injection, schedule: Q01DX001 (ip), vehicle: other): 142 % of control
survivor count (dose: 62.0 mg/kg/injection, schedule: Q01DX001 (ip), vehicle: other): 9 of 10
survivor count (dose: 93.0 mg/kg/injection, schedule: Q01DX001 (ip), vehicle: other): 3 of 10
survivor count (dose: 125.0 mg/kg/injection, schedule: Q01DX001 (ip), vehicle: other): 4 of 10
survivor count (dose: 187.0 mg/kg/injection, schedule: Q01DX001 (ip), vehicle: other): 0 of 10
survivor count (dose: 250.0 mg/kg/injection, schedule: Q01DX001 (ip), vehicle: other): 0 of 10
survivor count (dose: 375.0 mg/kg/injection, schedule: Q01DX001 (ip), vehicle: other): 0 of 10
survivor count (dose: 500.0 mg/kg/injection, schedule: Q01DX001 (ip), vehicle: other): 0 of 10

CC(=O)N(NC(C)C)C(C)C
survivor count [5]: 0 of 6
survivor count (dose: 200.0 mg/kg/injection, schedule: Q04DX003 (ip), vehicle: saline): 4 of 4
survivor count [6]: 0 of 6
survivor count (dose: 400.0 mg/kg/injection, schedule: Q04DX003 (ip), vehicle: saline): 0 of 4

NC(N)=NC(N)=Nc1ccc2c(Cl)c(Cl)ccc2c1
survivor count (dose: 100.0 mg/kg/injection, schedule: Q01DX009 (ip), vehicle: saline sonified): 0 of 6
survivor count (dose: 200.0 mg/kg/injection, schedule: Q01DX009 (ip), vehicle: saline sonified): 0 of 6
survivor count (dose: 200.0 mg/kg/injection, schedule: Q04DX003 (ip), vehicle: saline sonified): 3 of 6
survivor count (dose: 400.0 mg/kg/injection, schedule: Q01DX009 (ip), vehicle: saline sonified): 0 of 6
survivor count (dose: 400.0 mg/kg/injection, schedule: Q04DX003 (ip), vehicle: saline sonified): 0 of 6

COc1cc(C2=N/C(=C\c3cc(Br)cc(Br)c3O)C(=O)O2)cc(OC)c1OC
survivor count [7]: 3 of 3

CCN(C(=O)Nc1ccccc1F)c1cc(OC)ccc1C
survivor count [4]: 3 of 3

CC1(C)OC(O)C(C(O)C(O)C(O)C(=O)O)O1 (centres undefined)
survivor count [2]: 0 of 3

CCCOC(=O)CCl
survivor count [8]: 0 of 4
survivor count [9]: 0 of 4

O=C(CC(=O)c1ccccc1)Nc1ccccn1
survivor count [9]: 1 of 6

Cc1csc2[nH]c(=O)[nH]c(=O)c12
survivor count (dose: 200.0 mg/kg/injection, schedule: Q01DX009 (ip), vehicle: water): 3 of 6

NOCc1nnc(Nc2ccccc2)s1
survivor count [10]: 5 of 6

CCCCCCCCC1CCC2C3CCC4CC(C(=O)O)C(C(=O)O)CC4(C)C3CCC12C (centres undefined)
survivor count (dose: 400.0 mg/kg/injection, schedule: Q01DX001 (ip), vehicle: saline with Tween-80): 6 of 6

C[CH2][Sb]([CH2]C)([CH2]C)([O]C(C)=O)[O]C(C)=O
survivor count [7]: 0 of 3
survivor count [11]: 0 of 3
survivor count [12]: 0 of 3

N#Cc1ccc(Cl)cc1
survivor count (dose: 400.0 mg/kg/injection, schedule: Q04DX002 (ip), vehicle: Klucel (hydroxypropylcellulose) (HPC)): 0 of 3

CCN(C(=O)Nc1ccc(Cl)cc1)c1ccccc1C
survivor count (dose: 400.0 mg/kg/injection, schedule: Q04DX003 (ip), vehicle: saline with Tween-80): 5 of 6

Nc1nc(N)c(-c2ccc(Cl)cc2)c(CCc2ccc(NC(=O)CBr)cc2)n1
survivor count [8]: 0 of 4
survivor count [9]: 0 of 4

Cc1cc(C)c(C(=O)c2ccccc2C(=O)OC(=O)c2ccccc2C(=O)c2c(C)cc(C)cc2C)c(C)c1
T/C (dose: 50.0 mg/kg/injection, schedule: Q04DX002 (ip), vehicle: saline with Tween-80): 132 % of control
survivor count [11]: 3 of 3

Cc1ccccc1N=NN(C)C
survivor count (dose: 400.0 mg/kg/injection, schedule: Q01DX001 (ip), vehicle: carboxymethylcellulose (CMC)): 1 of 4

CCOC(=O)c1cnc(SCc2ccccc2Cl)nc1N1CC1
T/C (dose: 42.5 mg/kg/injection, schedule: Q01DX009 (ip), vehicle: saline with Tween-80): 136 % of control
T/C (dose: 75.0 mg/kg/injection, schedule: Q04DX003 (ip), vehicle: saline): 134 % of control [4 of 6 alive]
survivor count (dose: 85.0 mg/kg/injection, schedule: Q01DX009 (ip), vehicle: saline with Tween-80): 4 of 6
T/C (dose: 100.0 mg/kg/injection, schedule: Q01DX001 (ip), vehicle: saline): 128 % of control
survivor count (dose: 170.0 mg/kg/injection, schedule: Q01DX009 (ip), vehicle: saline with Tween-80): 0 of 6
survivor count [8]: 0 of 6
survivor count (dose: 255.0 mg/kg/injection, schedule: Q04DX003 (ip), vehicle: saline with Tween-80): 0 of 6
survivor count (dose: 385.0 mg/kg/injection, schedule: Q04DX003 (ip), vehicle: saline with Tween-80): 0 of 6
survivor count [9]: 0 of 6

O=Nc1c(O)[nH]c(=O)[nH]c1=O
survivor count (dose: 400.0 mg/kg/injection, schedule: Q01DX001 (ip), vehicle: Klucel (hydroxypropylcellulose) (HPC)): 0 of 6

Nc1ncc(N=O)c(=O)[nH]1
survivor count (dose: 200.0 mg/kg/injection, schedule: Q04DX002 (ip), vehicle: Klucel (hydroxypropylcellulose) (HPC)): 3 of 3

CC(C)=CCC/C(C)=C/COC(N)=O
survivor count (dose: 100.0 mg/kg/injection, schedule: Q01DX009 (ip), vehicle: saline): 2 of 6
survivor count [5]: 0 of 6
survivor count [6]: 6 of 6
survivor count [12]: 0 of 3 and 3 of 3

CC12CCC(C/C1=N\N=C(N)N)C2(C)C (centres undefined)
survivor count (dose: 150.0 mg/kg/injection, schedule: Q01DX001 (ip), vehicle: saline): 1 of 6
survivor count (dose: 300.0 mg/kg/injection, schedule: Q01DX001 (ip), vehicle: saline): 0 of 6

O=C(N/N=C\c1cc(=O)[nH]c(=O)[nH]1)c1ccccc1
survivor count [8]: 2 of 4
survivor count [9]: 1 of 4

Nc1ccc(C(=O)CC(O)(C(F)(F)F)C(F)(F)F)cc1
survivor count [10]: 3 of 6

Cc1c(Cl)cccc1NC(=O)c1c(Cl)c(Cl)c(Cl)c(Cl)c1C(=O)O
survivor count [1]: 0 of 6

CC(O)C[P+](c1ccccc1)(c1ccccc1)c1ccccc1 (centres undefined)
survivor count [9]: 0 of 4

Cc1c(C(C)(C)C)cc(C(C)(C)C)c(O)c1[N+](=O)[O-]
survivor count (dose: 100.0 mg/kg/injection, schedule: Q01DX001 (ip), vehicle: carboxymethylcellulose (CMC)): 3 of 3

CC(C)(C)N1CC(C(O)c2ccccc2)C1c1ccccc1 (centres undefined)
survivor count [3]: 3 of 6
